Source: article PMC10238511
Results are given in words; binding and its absence hold for the method and conditions named. In cells and extracts the contact can be indirect. Some binding calls cover weakened binding; strength is not graded here.

By UniProt entry, the sequences of proteins in these tests, tags left out. Where a name states a change or a piece, a line headed by the entry shows the natural chain unless it says otherwise. Chains listed by the source or under a name are the forms on record and can include a tag or linker. Residues count along the entry.
UniProt P22695, residues 15-453: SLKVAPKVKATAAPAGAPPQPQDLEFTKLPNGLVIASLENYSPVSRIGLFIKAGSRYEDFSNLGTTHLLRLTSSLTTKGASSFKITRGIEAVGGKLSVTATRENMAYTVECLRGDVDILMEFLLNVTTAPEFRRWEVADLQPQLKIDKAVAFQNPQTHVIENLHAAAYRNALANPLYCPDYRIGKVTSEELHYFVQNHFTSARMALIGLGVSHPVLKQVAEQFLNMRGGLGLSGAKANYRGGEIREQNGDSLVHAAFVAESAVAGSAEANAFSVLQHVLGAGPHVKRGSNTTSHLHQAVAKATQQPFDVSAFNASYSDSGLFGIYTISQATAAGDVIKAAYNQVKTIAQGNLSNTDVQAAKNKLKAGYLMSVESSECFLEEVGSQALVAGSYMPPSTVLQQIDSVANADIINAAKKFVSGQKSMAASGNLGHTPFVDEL
UniProt P00403: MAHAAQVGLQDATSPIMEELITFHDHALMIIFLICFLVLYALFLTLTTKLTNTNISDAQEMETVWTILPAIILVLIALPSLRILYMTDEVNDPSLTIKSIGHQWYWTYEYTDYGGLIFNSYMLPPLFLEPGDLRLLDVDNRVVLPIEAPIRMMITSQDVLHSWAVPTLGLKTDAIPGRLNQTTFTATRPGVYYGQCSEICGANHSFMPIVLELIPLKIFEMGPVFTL
FLAG-tag labeled SIM2s (SIM2s-FLAG) (Q14190-2, form named): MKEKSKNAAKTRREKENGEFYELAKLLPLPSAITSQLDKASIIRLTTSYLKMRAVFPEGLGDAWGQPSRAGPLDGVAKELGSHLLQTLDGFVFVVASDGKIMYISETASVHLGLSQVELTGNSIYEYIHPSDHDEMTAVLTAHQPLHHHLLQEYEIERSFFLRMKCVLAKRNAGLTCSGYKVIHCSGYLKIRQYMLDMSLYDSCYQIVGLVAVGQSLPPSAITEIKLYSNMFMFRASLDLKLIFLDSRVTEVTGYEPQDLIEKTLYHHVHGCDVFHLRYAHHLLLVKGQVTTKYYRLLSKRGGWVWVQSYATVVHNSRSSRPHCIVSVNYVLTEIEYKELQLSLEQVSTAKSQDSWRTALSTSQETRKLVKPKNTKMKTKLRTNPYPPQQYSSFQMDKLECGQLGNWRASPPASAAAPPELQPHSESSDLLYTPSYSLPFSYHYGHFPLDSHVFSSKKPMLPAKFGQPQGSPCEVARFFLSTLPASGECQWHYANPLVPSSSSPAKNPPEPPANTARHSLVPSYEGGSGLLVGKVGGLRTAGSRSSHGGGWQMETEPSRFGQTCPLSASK

How the values were obtained:
[1] = target: UQCRC2 (Complex III subunit) (human (endogenous in SUM159)) (UniProt P22695); experiment: proximity ligation; Duolink in situ PLA on fixed, permeabilized pLPCX SIM2s-FLAG SUM159 cells; anti-FLAG with anti-UQCRC2, anti-MT-CO2 or anti-NDUFB10 antibodies; red puncta per cell against background
[2] = target: MT-CO2 (Complex IV subunit) (human (endogenous in SUM159)) (UniProt P00403); experiment: as above

- binding [1]: binds
- binding [2]: binds
Substance: FLAG-tag labeled SIM2s (SIM2s-FLAG) (from UniProt Q14190-2 1-570)
